Reference: PubChem BioAssay AID300 (DTP/NCI, 2004)
The list is a part of this screen's results and no random one: it is rich in T/C values a quarter to a half above the control, in often repeated tests (any T/C) and in doses without a T/C. Further doses and runs are listed elsewhere. T/C is the treated group as % of the vehicle group. Some doses have a count of surviving animals in place of a T/C: the source files T/C as zero there, which appears to mark a toxic dose or a test without result, not a measured value. Some survivor counts are full or nearly so, which does not show that the dose was tolerated: survival well below the control is almost never listed, so the zero probably covers shortened survival too. Counts of survivors are from the toxicity check (mostly the fifth day) where no day follows; animals may have died later. Schedule codes are those of the source, taken here to give the interval after Q, in days (D) or hours (H), and the number of doses after X. Where survival is the endpoint, the PubChem record calls one and a half times the control and up active, and a quarter to a half above the control has no call in these data; cut-offs in other NCI protocols can differ. Additions like (4×) say how often a value occurs here. *1 amine or outer side, *2 acyl side, *3 side chain or, on linkers, in order; H or OH if unused. Where a SMILES comes first, the peptide text is derived from it. Bridges are numbered along the chain shown (N, C = ends). Roman numbers before positions name the chains, in order. [ ]: non-standard residue; d: D form. Actinocin(9to1) = Cc1c2oc3c(C)ccc(C(=O)[*:1])c3nc-2c(C(=O)[*:2])c(N)c1=O; NMeV = CN[CH](C(=O)O)C(C)C; Sar = CNCC(=O)O

Test system: Madison 109 lung carcinoma i.m., mice, median survival
Assay: NCI In Vivo Anticancer Drug Screen. Data for tumor model Madison 109 Lung Carcinoma (intramuscular) in unknown mice
Conditions: T/C endpoint: median survival time, higher T/C = longer survival
Procedure: The antitumor activity of compounds was measured in mice bearing transplantable tumors. Survival or tumor size were measured and the results are expressed as the measurement made in the treated group (T) divided by the measurement made in the vehicle treated control group (C). The tumor model used in this assay is Madison 109 Lung Carcinoma (intramuscular) in unknown mice

[1] = dose: 10.5 mg/kg/injection, schedule: Q01DX005 (ip), vehicle: water, evaluated on day 5
[2] = dose: 10.5 mg/kg/injection, schedule: Q01DX005 (ip), vehicle: water, evaluated on day 75
[3] = dose: 160.0 mg/kg/injection, schedule: Q02DX009 (ip), vehicle: water
[4] = dose: 40.0 mg/kg/injection, schedule: Q02DX009 (ip), vehicle: water

With `COc1cccc2c1C(=O)c1c(O)c3c(c(O)c1C2=O)CC(O)(C(=O)CO)CC3OC1CC(N)C(O)C(C)O1` (stereo not drawn) the T/C (dose: 8.0 mg/kg/injection, schedule: Q01DX005 (ip), vehicle: water, evaluated on day 5) was 126 % of control, the T/C (dose: 8.0 mg/kg/injection, schedule: Q01DX005 (ip), vehicle: water, evaluated on day 75) was 126 % of control and the T/C [1] was 130 % of control. For the same compound, the T/C [2] was 130 % of control, the T/C (dose: 16.5 mg/kg/injection, schedule: Q01DX005 (ip), vehicle: water, evaluated on day 5) was 132 % of control and the T/C (dose: 16.5 mg/kg/injection, schedule: Q01DX005 (ip), vehicle: water, evaluated on day 75) was 132 % of control. The T/C (dose: 24.0 mg/kg/injection, schedule: Q01DX005 (ip), vehicle: water, evaluated on day 5) was 136 % of control, the T/C (dose: 24.0 mg/kg/injection, schedule: Q01DX005 (ip), vehicle: water, evaluated on day 75) was 136 % of control and the T/C (dose: 27.5 mg/kg/injection, schedule: Q01DX005 (ip), vehicle: water, evaluated on day 5) was 149 % of control. The T/C (dose: 27.5 mg/kg/injection, schedule: Q01DX005 (ip), vehicle: water, evaluated on day 75) was 149 % of control, the T/C (dose: 31.5 mg/kg/injection, schedule: Q01DX005 (ip), vehicle: water, evaluated on day 5) was 141 % of control and the T/C (dose: 31.5 mg/kg/injection, schedule: Q01DX005 (ip), vehicle: water, evaluated on day 75) was 141 % of control. For the same compound, the T/C (dose: 40.0 mg/kg/injection, schedule: Q01DX005 (ip), vehicle: water, evaluated on day 5) was 147 % of control and the T/C (dose: 40.0 mg/kg/injection, schedule: Q01DX005 (ip), vehicle: water, evaluated on day 75) was 147 % of control.

`CCN(CC)CCOc1ccc2c(c1)C(=O)c1cc(OCCN(CC)CC)ccc1-2` was tested, and the T/C (dose: 100.0 mg/kg/injection, schedule: Q04DX009 (ip), vehicle: Klucel (hydroxypropylcellulose) (HPC)) was 126 % of control and the survivor count (dose: 150.0 mg/kg/injection, schedule: Q04DX009 (ip), vehicle: Klucel (hydroxypropylcellulose) (HPC)) was 7 of 8.

`CSCS(=O)C[C@H](CO)NC(=O)/C=C/c1c(C)[nH]c(=O)[nH]c1=O` (stereo partly drawn) was tested, and the survivor count (dose: 0.4 mg/kg/injection, schedule: Q01DX009 (ip), vehicle: water) was 8 of 8.

For `O=[N+]([O-])c1ccc([N+](=O)[O-])c(Cl)c1`, the T/C [3] was 130 % of control.

For `c1ccc([C@H]2CN3CCSC3=N2)cc1`, the survivor count (dose: 12.0 mg/kg/injection, schedule: Q01DX009 (ip), vehicle: water) was 8 of 8.

`O=[N+]([O-])c1ccc(Cl)cc1[N+](=O)[O-]` was tested, and the T/C [4] was 133 % of control and the T/C [3] was 138 % of control.

With `O=[N+]([O-])c1cccc([N+](=O)[O-])c1Cl` the T/C (dose: 10.0 mg/kg/injection, schedule: Q02DX009 (ip), vehicle: water) was 132 % of control, the T/C (dose: 20.0 mg/kg/injection, schedule: Q02DX009 (ip), vehicle: water) was 128 % of control and the T/C [4] was 129 % of control (2×). For the same compound, the T/C (dose: 80.0 mg/kg/injection, schedule: Q02DX009 (ip), vehicle: water) was 132 % of control.

In the case of `NC(=O)c1ncn(C2OC(CO)C(O)C2O)n1` (stereo not drawn), the survivor count (dose: 200.0 mg/kg/injection, schedule: Q01DX009 (ip), vehicle: water) is reported as 8 of 8.

With `CC(=O)c1cccc(NC2C(N)C(NC(=O)N(C)C)(C(C)O)C(C)(O)C2(O)COC(=O)c2c(C)cccc2O)c1` (stereo not drawn) the survivor count (dose: 0.1 mg/kg/injection, schedule: Q01DX009 (ip), vehicle: other) was 8 of 8 and the T/C (dose: 1.2 mg/kg/injection, schedule: Q01DX009 (ip), vehicle: other) was 138 % of control.

In the case of `CC1=C(/C=C/C(C)=C/C=C/C(C)=C/C(=O)O)C(C)(C)CCC1`, the survivor count (dose: 100.0 mg/kg/injection, schedule: Q01DX009 (ip), vehicle: other) is reported as 7 of 8 and the survivor count (dose: 200.0 mg/kg/injection, schedule: Q01DX009 (ip), vehicle: other) is reported as 8 of 8.

`O=CC(NC(=O)N(CCCl)N=O)C(O)C(O)C(O)CO` (stereo not drawn) was tested, and the survivor count (dose: 39.0 mg/kg/injection, schedule: Q01DX001 (ip), vehicle: saline) was 8 of 8.

In the case of `Cc1c(N)nc([C@H](CC(N)=O)NC[C@H](N)C(N)=O)nc1C(=O)N[C@H](C(=O)N[C@H](C)[C@@H](O)[C@H](C)C(=O)N[C@H](C(=O)NCCc1nc(-c2nc(C(=O)NCCC[S+](C)C)cs2)cs1)[C@@H](C)O)C(OC1OC(CO)C(O)C(O)C1OC1OC(CO)C(O)C(OC(N)=O)C1O)c1cnc[nH]1` (stereo partly drawn), the T/C (dose: 10.0 mg/kg/injection, schedule: Q04DX003 (ip), vehicle: saline) is reported as 141 % of control.

With `Cc1c2oc3c(C)ccc(C(=O)NC4C(=O)NC(C(C)C)C(=O)N5CCCC5C(=O)N(C)CC(=O)N(C)C(C(C)C)C(=O)OC4C)c3nc-2c(C(=O)NC2C(=O)NC(C(C)C)C(=O)N3CCCC3C(=O)N(C)CC(=O)N(C)C(C(C)C)C(=O)OC2C)c(N)c1=O` (stereo not drawn) (I: TVP[Sar][NMeV] / II: TVP[Sar][NMeV]; ester I:1-I:C, II:1-II:C; linker I:N-II:N via Actinocin(9to1); configuration not given here) the T/C (dose: 0.44 mg/kg/injection, schedule: Q01DX009 (ip), vehicle: water, evaluated on day 5) was 139 % of control, the T/C (dose: 0.44 mg/kg/injection, schedule: Q01DX009 (ip), vehicle: water, evaluated on day 66) was 139 % of control and the T/C (dose: 0.66 mg/kg/injection, schedule: Q01DX009 (ip), vehicle: water, evaluated on day 5) was 127 % of control. The T/C (dose: 0.66 mg/kg/injection, schedule: Q01DX009 (ip), vehicle: water, evaluated on day 66) was 127 % of control, the T/C (dose: 0.96 mg/kg/injection, schedule: Q01DX009 (ip), vehicle: water, evaluated on day 5) was 140 % of control and the T/C (dose: 0.96 mg/kg/injection, schedule: Q01DX009 (ip), vehicle: water, evaluated on day 66) was 140 % of control. For the same compound, the T/C (dose: 1.26 mg/kg/injection, schedule: Q01DX009 (ip), vehicle: water, evaluated on day 5) was 134 % of control and the T/C (dose: 1.26 mg/kg/injection, schedule: Q01DX009 (ip), vehicle: water, evaluated on day 66) was 134 % of control.

With `CO[C@H](C(=O)[C@@H](O)[C@@H](C)O)[C@@H]1Cc2cc3cc(OC4CC(OC5CC(O)C(O)C(C)O5)C(O)C(C)O4)c(C)c(O)c3c(O)c2C(=O)[C@H]1OC1CC(OC2CC(OC3CC(C)(O)C(O)C(C)O3)C(O)C(C)O2)C(O)C(C)O1` (stereo partly drawn) the survivor count (dose: 0.2 mg/kg/injection, schedule: Q01DX009 (ip), vehicle: water) was 8 of 8 and the survivor count (dose: 0.6 mg/kg/injection, schedule: Q01DX009 (ip), vehicle: water) was 6 of 8.

In the case of `CN(C)c1nc(N(C)C)nc(N(C)C)n1`, the survivor count (dose: 80.0 mg/kg/injection, schedule: Q01DX009 (ip), vehicle: other) is reported as 8 of 8 and the survivor count (dose: 160.0 mg/kg/injection, schedule: Q01DX009 (ip), vehicle: other) is reported as 0 of 8.

With `COc1cccc2c1C(=O)c1c(O)c3c(c(O)c1C2=O)C[C@@](O)(C(=O)CO)C[C@@H]3OC1CC(N)C(O)C(C)O1` (stereo partly drawn) the T/C (dose: 1.5 mg/kg/injection, schedule: Q01DX005 (ip), vehicle: water, evaluated on day 5) was 129 % of control, the T/C (dose: 1.5 mg/kg/injection, schedule: Q01DX005 (ip), vehicle: water, evaluated on day 75) was 129 % of control and the survivor count (dose: 2.5 mg/kg/injection, schedule: Q01DX005 (ip), vehicle: water) was 6 of 6. For the same compound, the survivor count (dose: 5.0 mg/kg/injection, schedule: Q04DX003 (ip), vehicle: water) was 8 of 8.

For `Nc1n[nH]c(N)n1`, the T/C (dose: 400.0 mg/kg/injection, schedule: Q01DX009 (ip), vehicle: water) was 131 % of control.

`O=C1OC(C(O)CO)C(O)=C1O` (stereo not drawn) was tested, and the survivor count (dose: 3200.0 mg/kg/injection, schedule: Q01DX009 (ip), vehicle: other) was 8 of 8.

In the case of `COc1cccc2c1C(=O)c1c(O)c3c(c(O)c1C2=O)CC(O)(C(C)=O)CC3OC1CC(N)C(O)C(C)O1` (stereo not drawn), the T/C [1] is reported as 129 % of control, the T/C [2] is reported as 129 % of control and the survivor count (dose: 24.0 mg/kg/injection, schedule: Q01DX005 (ip), vehicle: water) is reported as 6 of 6. The survivor count (dose: 27.5 mg/kg/injection, schedule: Q01DX005 (ip), vehicle: water) was 6 of 6.

With `O=C(O)CCCc1ccc(N(CCCl)CCCl)cc1` the survivor count (dose: 0.75 mg/kg/injection, schedule: Q01DX009 (ip), vehicle: saline) was 8 of 8, the T/C (dose: 3.0 mg/kg/injection, schedule: Q01DX009 (ip), vehicle: saline) was 128 % of control and the T/C (dose: 6.0 mg/kg/injection, schedule: Q01DX009 (ip), vehicle: saline) was 131 % of control.

`C[C@]12C=CC(=O)C=C1CC[C@@H]1[C@@H]2C(=O)C[C@@]2(C)[C@H]1CC[C@]2(O)C(=O)CO` was tested, and the T/C (dose: 20.0 mg/kg/injection, schedule: Q01DX009 (ip), vehicle: saline) was 126 % of control.
